Measured values reported in the supplement of paper PMC12873370.
“And” between values parts separate entries of the source, which are not always exact repeats. Equal values may be shown once. The list shows a part of the results. Many values rest on one well or one pass, so single values are uncertain.

Assays:
[1] = tested on: MEPP (mouse ovarian epithelium Trp53/Pten KO); assay: cell viability relative to untreated (fraction); higher = less growth inhibition; settings: 5 µM; 3 days
[2] = tested on: PREPP (mouse prostate epithelium Trp53/Pten KO); assay: as above; settings: 5 µM; 3 days

| Structure (SMILES) | cell viability [1] | cell viability [2] |
| --- | --- | --- |
| CCC[C@@H]1C[C@@H](C(=O)N[C@@H]([C@H]2O[C@H](SC)[C@H](O)[C@@H](O)[C@H]2O)[C@H](C)Cl)N(C)C1 | 1.1 and 1.11 | 1.03 and 0.961 |
| O=c1[nH]c(=O)c2ccccc2[nH]1 | 0.897 | 1.2 |
| NC[C@H]1O[C@H](O[C@H]2[C@H](O[C@@H]3O[C@H](CO)[C@@H](O)[C@H]3O)[C@@H](O)[C@H](N)C[C@@H]2N)[C@H](N)[C@@H](O)[C@@H]1O | 0.944 | 0.822 |
| Cc1cccc(C)c1NC(=O)C1CCCCN1C (stereo not drawn) | 0.958 | 0.921 |
| Cc1c(S(=O)(=O)O)oc2c1C(=O)C(=O)c1c-2ccc2c1CCCC2(C)C | 1 | 0.738 |
| C[N+](C)(C)CCO.[Cl-] | 1.22 | 0.986 |
| CO/N=C(\C(=O)N[C@@H]1C(=O)N2C(C(=O)O)=C(Cn3ccc(=N)n3CCO)CS[C@H]12)c1csc(N)n1 | 1.15 | 0.95 |
| CCCCOc1cc(C(=O)NCCN(CC)CC)c2ccccc2n1 | 1.27 | 0.838 |
| Cc1ncc(CO)c(CO)c1O | 0.936 and 0.86 | 0.932 and 1.01 |
| O=C(O)CCC(=O)O | 0.918 | 0.752 |
| O=C(O)Cc1c[nH]c2ccc(O)cc12 | 1.1 | 1.06 |
| Nc1c2ccccc2nc2ccccc12 | 0.629 | 0.894 |
| CC(C)[C@H](N)C(=O)OCCOCn1cnc2c(=O)nc(N)[nH]c21 | 0.809 | 0.908 |
| Cc1ncc([N+](=O)[O-])n1CCO | 0.962 | 1.01 |
| O=C(O)c1ccncc1 | 1.28 | 0.996 |
| CC(=O)N[C@@H](CCC(N)=O)C(=O)O | 1.08 | 0.908 |
| COc1cccc(-c2cc(=O)c3ccccc3o2)c1N | 1.14 | 0.644 |
| NC(=O)CC[C@H](NC(=O)Cc1ccccc1)C(=O)O | 0.897 | 0.958 |
| Cc1c(-c2ccccc2)oc2c(C(=O)OCCN3CCCCC3)cccc2c1=O | 0.735 | 0.961 |
| CC(C)Oc1ccc2c(=O)c(-c3ccccc3)coc2c1 | 0.781 | 0.888 |
| NC(=O)CC[C@H](N)C(=O)O | 1.1 | 0.894 |
| CC/C=C\C/C=C\C/C=C\C/C=C\C/C=C\CCCC(=O)O | 0.801 | 0.975 |
| C/C(=C\C(=O)OCCCCCCCCC(=O)O)C[C@@H]1OC[C@H](C[C@@H]2O[C@H]2[C@@H](C)[C@H](C)O)[C@@H](O)[C@H]1O | 0.801 | 0.929 |

| Structure (SMILES) | cell viability [1] | cell viability [2] |
| --- | --- | --- |
| O=C(O)CCCCC1CCSS1 (stereo not drawn) | 1.08 and 1 and 0.982 | 1.01 and 0.796 and 0.918 |
| O=C(O)c1ccccn1 | 1.18 | 0.951 |
| CCCCCCCCCCCCCCC(=O)O | 1.03 | 0.846 |
| O=c1cc(-c2ccccc2)oc2cc(O)c(O)c(O)c12 | 1.27 | 1.21 |
| Nc1ncnc2c1c(I)cn2[C@@H]1O[C@H](CO)[C@@H](O)[C@H]1O | 0.604 | 0.668 |
| C=CCSC | 0.998 | 1 |
| NC(=O)C[C@H](N)C(=O)O | 0.905 | 0.99 |
| C[C@@H]1O[C@@H]1P(=O)(O)O | 1.07 | 0.886 |
| O=C(O)C(=O)O | 1.01 | 0.931 |
| COc1c(C)c2c(c(O)c1C/C=C(\C)CCC(=O)O)C(=O)OC2 | 0.417 | 0.598 |
| C=C[C@H]1CN2CC[C@H]1C[C@H]2[C@H](O)c1ccnc2ccc(OC)cc12 | 0.798 | 0.872 |
| Oc1cc(O)c2cc(O)c(-c3ccc(O)c(O)c3)[o+]c2c1 | 1.08 | 1.19 |
| C=CCc1cc(OC)c(O[C@@H](C)[C@H](O)c2ccc(O)c(OC)c2)c(OC)c1 | 0.966 | 0.919 |
| NC(=O)[C@@H]1CSSCCC(=O)N[C@@H](CCCCN=C(N)N)C(=O)NCC(=O)N[C@@H](CC(=O)O)C(=O)N[C@@H](Cc2c[nH]c3ccccc23)C(=O)N2CCC[C@H]2C(=O)N1 | 0.919 | 1.02 |
| COc1ccc2cc1Oc1ccc(cc1)C[C@H]1c3cc(c(OC)cc3CCN1C)Oc1c(O)c(OC)cc3c1[C@H](C2)N(C)CC3 | 0.594 | 0.986 |
| c1ccc2[nH]ccc2c1 | 0.901 | 1.05 |
| CC(Cc1ccc(O)c(O)c1)C(C)Cc1ccc(O)c(O)c1 (stereo not drawn) | 1.13 | 0.8 |
| CC1(C)S[C@@H]2[C@H](NC(=O)[C@H](C(=O)O)c3ccsc3)C(=O)N2[C@H]1C(=O)O | 0.971 | 1.01 |
| CCC(C)n1ncn(-c2ccc(N3CCN(c4ccc(OCC5COC(Cn6cncn6)(c6ccc(Cl)cc6Cl)O5)cc4)CC3)cc2)c1=O (stereo not drawn) | 0.684 | 0.593 |
| CC[C@H]1OC(=O)C[C@@H](O)[C@H](C)[C@@H](O[C@@H]2O[C@H](C)[C@@H](O)[C@H](N(C)C)[C@H]2O)[C@@H](CCN2C[C@H](C)C[C@H](C)C2)C[C@@H](C)C(=O)/C=C/C(C)=C/[C@@H]1CO[C@@H]1O[C@H](C)[C@@H](O)[C@@H](OC)[C@H]1OC | 0.994 | 0.899 |
| CC(N)=O | 1.09 | 0.93 |
| CC(C)C[C@H](NC(=O)[C@@H](O)[C@H](N)Cc1ccccc1)C(=O)O | 1.06 | 0.928 |
| C[C@]12CC[C@@H]3c4ccc(OC(=O)c5ccccc5)cc4CC[C@H]3[C@@H]1CC[C@@H]2O | 0.787 | 0.846 |

| Structure (SMILES) | cell viability [1] | cell viability [2] |
| --- | --- | --- |
| C=C1CC[C@H](O)C/C1=C/C=C1\CCC[C@]2(C)[C@@H]([C@H](C)/C=C/[C@H](C)C(C)C)CC[C@@H]12 | 1.03 | 1.06 |
| CC(=O)C(=O)O | 1.3 | 0.983 |
| Oc1ccc(Cc2nc3c(Cc4ccccc4)nc(-c4ccc(O)cc4)cn3c2O)cc1 | 1.12 | 0.936 |
| COc1ccc(-c2cc(=O)c3c(OC)c(OC)c(OC)c(OC)c3o2)cc1 | 1.01 | 0.913 |
| COc1cc(C(C)=O)ccc1O | 1.15 | 0.96 |
| NCCCCNCCCN | 1.14 and 0.797 | 0.954 and 1.01 |
| Cn1c(=O)c2c(ncn2C)n(C)c1=O | 1.02 | 1.03 |
| CCCCCCCCCCCCCCCCC(=O)O | 1.01 | 0.987 |
| O=C(O)c1ccccc1C(=O)O | 0.985 | 0.818 |
| NCCCCCCCC(=O)O | 0.938 | 1.17 |
| FCOC(C(F)(F)F)C(F)(F)F | 0.867 | 0.875 |
| CC(C)=CCC[C@](C)(O[C@@H]1O[C@H](CO)[C@@H](O)[C@H](O)[C@H]1O)[C@H]1CC[C@]2(C)[C@@H]1[C@H](O)C[C@@H]1[C@@]3(C)CC[C@H](O)C(C)(C)[C@@H]3[C@@H](O[C@@H]3O[C@H](CO)[C@@H](O)[C@H](O)[C@H]3O)C[C@]12C | 1.23 | 1.06 |
| COc1ccc(-c2cc(=O)c3c(O)cc(O)cc3o2)cc1 | 1.25 | 1.03 |
| CC1(C)S[C@@H]2[C@H](NC(=O)[C@H](NC(=O)N3CCN(S(C)(=O)=O)C3=O)c3ccccc3)C(=O)N2[C@H]1C(=O)O | 1.12 | 0.919 |
| C[C@]12C=CC(=O)C=C1CC[C@@H]1[C@@H]2[C@@H](O)C[C@@]2(C)[C@H]1CC[C@]2(O)C(=O)CO | 0.889 | 0.825 |
| CC(=O)N[C@@H](CC(C)C)C(=O)O | 1.28 | 0.959 |
| CSSSC | 1.06 | 1.02 |
| O=C(O)/C=C/c1ccc(O)cc1 | 0.868 | 1.36 |
| CC(C)=CCOc1ccc(/C=C/C(=O)c2ccc(OCC=C(C)C)cc2OCC(=O)O)cc1 | 0.835 | 0.902 |
| OC[C@H]1O[C@@H](n2cnc3c(O)nc(O)nc32)[C@H](O)[C@@H]1O | 1.16 | 0.973 |
| Cc1c(C(N)=O)cc([N+](=O)[O-])cc1[N+](=O)[O-] | 1.15 | 0.924 |
| NC(=O)c1[nH]cnc1N | 1.28 | 1.03 |
| Nc1ccn(C2OC(COP(=O)(O)OP(=O)(O)OP(=O)(O)O)C(O)C2O)c(=O)n1 (stereo not drawn) | 1.27 | 0.823 |

Of the compounds above, three have a Cl atom.

| Structure (SMILES) | cell viability [1] | cell viability [2] |
| --- | --- | --- |
| CCC[C@@H]1C[C@@H](C(=O)N[C@@H]([C@H]2O[C@H](SC)[C@H](O)[C@@H](O)[C@H]2O)[C@H](C)Cl)N(C)C1 | 1.1 and 1.11 | 1.03 and 0.961 |
| C[N+](C)(C)CCO.[Cl-] | 1.22 | 0.986 |
| CCC(C)n1ncn(-c2ccc(N3CCN(c4ccc(OCC5COC(Cn6cncn6)(c6ccc(Cl)cc6Cl)O5)cc4)CC3)cc2)c1=O (stereo not drawn) | 0.684 | 0.593 |

The results go on.

| Structure (SMILES) | cell viability [1] | cell viability [2] |
| --- | --- | --- |
| OCc1ccc(O[C@@H]2O[C@H](CO)[C@@H](O)[C@H](O)[C@H]2O)cc1 | 1.05 | 0.986 |
| Cn1c(=O)c2c(ncn2CC(O)CO)n(C)c1=O (stereo not drawn) | 1.01 | 0.951 |
| NS(=O)(=O)c1cc(C(=O)O)c(NCc2ccco2)cc1Cl | 1.09 | 0.922 |
| CC[C@H](C)[C@H](NC(=O)[C@H](Cc1ccc(O)cc1)NC(=O)[C@@H](NC(=O)[C@H](CCCNC(=N)N)NC(=O)[C@@H](N)CC(=O)O)C(C)C)C(=O)N[C@@H](Cc1cnc[nH]1)C(=O)N1CCC[C@H]1C(=O)N[C@@H](Cc1ccccc1)C(=O)O | 0.998 | 0.742 |
| O=C(O)Cc1cccc2ccccc12 | 0.973 | 1.05 |
| O=C[C@H](O)[C@@H](O)[C@@H](O)[C@H](O)CO | 0.92 | 1.08 |
| CC[C@H](C)[C@H](N)C1=N[C@H](C(=O)N[C@@H](CC(C)C)C(=O)N[C@H](CCC(=O)O)C(=O)N[C@H](C(=O)N[C@H]2CCCCNC(=O)[C@H](CC(N)=O)NC(=O)[C@@H](CC(=O)O)NC(=O)[C@H](Cc3cnc[nH]3)NC(=O)[C@@H](Cc3ccccc3)NC(=O)[C@H]([C@@H](C)CC)NC(=O)[C@@H](CCCN)NC2=O)[C@@H](C)CC)CS1 | 0.946 | 0.832 |
| NCCS(=O)(=O)O | 1.2 | 0.942 |
| O=C(O)[C@@H]1C[C@@H](O)CN1 | 0.93 | 1.05 |
| CCC1C=C(C)CC(C)CC(OC)C2OC(O)(C(=O)C(=O)N3CCCCC3C(=O)OC(C(C)=CC3CCC(O)C(OC)C3)C(C)C(O)CC1=O)C(C)CC2OC (stereo not drawn) | 1.06 | 0.951 |
| O=C(c1ccccc1)c1ccccc1 | 1.23 | 0.968 |
| COc1c(C)c2c(c(O)c1C/C=C(\C)CCC(=O)OCCN1CCOCC1)C(=O)OC2 | 0.564 | 0.619 |
| CNC(=N)NCCC[C@H](N)C(=O)O | 0.772 | 0.98 |
| Oc1cc(O)cc(/C=C/c2ccc(O)c(O)c2)c1 | 0.913 | 0.937 |
| O=C(O)c1cccnc1C(=O)O | 0.859 | 0.931 |
| Nc1ncnc2c1ncn2[C@@H]1O[C@H](CO)[C@@H](O)[C@H]1O | 1.08 | 1.07 |
| CN(C)c1ncnc2nc[nH]c12 | 1.05 | 0.938 |
| O=C(O)CNC(=O)c1ccccc1 | 0.86 | 1.01 |
| CC(C)[C@H](N)C(=O)O | 0.908 | 1.03 |
| O=C([O-])CC(O)(CC(=O)[O-])C(=O)[O-].[Na+].[Na+].[Na+] | 0.895 | 0.915 |
